Results on 14 compounds are retold here after PubChem BioAssay AID248 (DTP/NCI, 2004).

SMILES strings stand for the structures. The list shows only some results of the screen, not a fair sample: it is rich in T/C values a quarter to a half above the control, in often repeated tests (any T/C) and in doses without a T/C. Further doses and runs are listed elsewhere. T/C: endpoint of the treated group in % of that of the vehicle group. Some doses have a count of surviving animals in place of a T/C: the source files T/C as zero there, which appears to mark a toxic dose or a test without result, not a measured value. Some survivor counts are full or nearly so, which does not show that the dose was tolerated: survival well below the control is almost never listed, so the zero probably covers shortened survival too. Survivors were counted at the toxicity check, usually on the fifth day, unless a day is given; later deaths do not show. Schedule codes are those of the source, read here as Q, the interval in days (D) or hours (H), X, the number of doses. Some structures stand for samples that the source files as different forms (salt, stereo form or complex); doses refer to the form tested. Brackets with × give the number of equal values in this list. Some entries hold several experiments; the results are listed from low to high. Where survival is the endpoint, this PubChem deposit counts one and a half times the control or more as active, and values a quarter to a half above the control carry no call in these data; other NCI protocols may use other cut-offs. Some T/C values are followed by the survivors on the day toxicity was checked, most often the fifth; without a count, all were alive then.

In this assay the test system is L1210 leukemia ip in BDF1 mice, survival T/C. Description: NCI In Vivo Anticancer Drug Screen. Data for tumor model L1210 Leukemia (intraperitoneal) in B6D2F1 (BDF1) mice. The following applies: T/C endpoint: mean survival time, higher T/C = longer survival.
Where [1] appears, read: dose: 400.0 mg/kg/injection, schedule: Q04DX002 (ip), vehicle: Klucel (hydroxypropylcellulose) (HPC).
Setting [2] is: dose: 400.0 mg/kg/injection, schedule: Q04DX003 (ip), vehicle: saline.
Setting [3] is: dose: 400.0 mg/kg/injection, schedule: Q01DX001 (ip), vehicle: carboxymethylcellulose (CMC).
Setting [4] is: dose: 40.0 mg/kg/injection, schedule: Q01DX001 (ip), vehicle: saline.
Where [5] appears, read: dose: 75.0 mg/kg/injection, schedule: Q01DX001 (ip), vehicle: saline.
Setting [6] is: dose: 150.0 mg/kg/injection, schedule: Q01DX001 (ip), vehicle: saline.
[7] abbreviates: dose: 300.0 mg/kg/injection, schedule: Q01DX001 (ip), vehicle: saline.

As to `N#CC(Nc1cc(=O)[nH]c(=O)[nH]1)c1ccccc1` (stereo not drawn), the survivor count under setting [1] is listed as 1 of 3.

With `CN(C)c1ccc(C=NCCCO)cc1`, the survivor count (dose: 400.0 mg/kg/injection, schedule: Q04DX002 (ip), vehicle: saline with Tween-80) is listed as 1 of 3.

Regarding `CN(C)CCC(C)(N)c1cccc2ccccc12` (stereo not drawn), the survivor count under setting [2] is recorded as 0 of 6.

As for `O=NN(CCCl)C(=O)CCCCC(=O)N(CCCl)N=O`, the T/C (dose: 6.25 mg/kg/injection, schedule: Q01DX001 (ip), vehicle: Klucel (hydroxypropylcellulose) (HPC), evaluated on day 5) was 128 % of control; the T/C (dose: 6.25 mg/kg/injection, schedule: Q01DX001 (ip), vehicle: Klucel (hydroxypropylcellulose) (HPC), evaluated on day 45) is 128 % of control; the T/C (dose: 12.5 mg/kg/injection, schedule: Q01DX001 (ip), vehicle: Klucel (hydroxypropylcellulose) (HPC), evaluated on day 5) was 132 % of control; the T/C (dose: 12.5 mg/kg/injection, schedule: Q01DX001 (ip), vehicle: Klucel (hydroxypropylcellulose) (HPC), evaluated on day 45) is 132 % of control; the T/C (dose: 12.5 mg/kg/injection, schedule: Q01DX001 (ip), vehicle: carboxymethylcellulose (CMC)) was 131 % of control; the T/C (dose: 25.0 mg/kg/injection, schedule: Q01DX001 (ip), vehicle: Klucel (hydroxypropylcellulose) (HPC), evaluated on day 5) was 133 % of control. Also, the T/C (dose: 25.0 mg/kg/injection, schedule: Q01DX001 (ip), vehicle: Klucel (hydroxypropylcellulose) (HPC), evaluated on day 45) was 133 % of control; the T/C (dose: 50.0 mg/kg/injection, schedule: Q01DX001 (ip), vehicle: Klucel (hydroxypropylcellulose) (HPC), evaluated on day 5) is 148 [8 of 9 alive] and 163 % of control; the T/C (dose: 50.0 mg/kg/injection, schedule: Q01DX001 (ip), vehicle: Klucel (hydroxypropylcellulose) (HPC), evaluated on day 45) is 131 [8 of 9 alive] and 163 % of control. Besides, the survivor count is 9 of 10 (dose: 100.0 mg/kg/injection, schedule: Q01DX001 (ip), vehicle: Klucel (hydroxypropylcellulose) (HPC)); 6 of 10 (dose: 200.0 mg/kg/injection, schedule: Q01DX001 (ip), vehicle: Klucel (hydroxypropylcellulose) (HPC)); 5 of 6 (dose: 300.0 mg/kg/injection, schedule: Q01DX001 (ip), vehicle: carboxymethylcellulose (CMC)); 0 of 10 and 10 of 10 (dose: 400.0 mg/kg/injection, schedule: Q01DX001 (ip), vehicle: Klucel (hydroxypropylcellulose) (HPC)); 1 of 6 under setting [3]; 0 of 6 (dose: 500.0 mg/kg/injection, schedule: Q01DX001 (ip), vehicle: carboxymethylcellulose (CMC)). Besides, the survivor count is given as 0 of 6 (dose: 600.0 mg/kg/injection, schedule: Q01DX001 (ip), vehicle: carboxymethylcellulose (CMC)); 0 of 6 (dose: 800.0 mg/kg/injection, schedule: Q01DX001 (ip), vehicle: carboxymethylcellulose (CMC)); 0 of 6 (dose: 1000.0 mg/kg/injection, schedule: Q01DX001 (ip), vehicle: carboxymethylcellulose (CMC)).

With `CCSCCOP(=O)(N(C)C)N(C)C`, the survivor count is 3 of 3 (dose: 200.0 mg/kg/injection, schedule: Q04DX002 (ip), vehicle: Klucel (hydroxypropylcellulose) (HPC)) and 1 of 3 under setting [1].

As to `CC(N)C(O)c1cccc(O)c1` (stereo not drawn), the survivor count (dose: 200.0 mg/kg/injection, schedule: Q01DX009 (ip), vehicle: saline) was 2 of 6; the survivor count (dose: 200.0 mg/kg/injection, schedule: Q04DX003 (ip), vehicle: saline) was 1 of 4; the survivor count (dose: 400.0 mg/kg/injection, schedule: Q01DX009 (ip), vehicle: saline) is 0 of 6; the survivor count under setting [2] is reported as 2 of 4.

Turning to `CN1CCN(C(=S)[S-])CC1.CN1CCN(C(=S)[S-])CC1.[Zn]`, the survivor count under setting [4] is reported as 0 of 6, the survivor count under setting [5] was 0 of 6, the survivor count under setting [6] was 0 of 6 and the survivor count under setting [7] was 0 of 6.

`CC[N+]1(C2CCCCC2)CCCCC1`: the survivor count reads like this: under setting [5], 1 of 6; (dose: 80.0 mg/kg/injection, schedule: Q01DX001 (ip), vehicle: saline) 3 of 6; under setting [6], 0 of 6 (2×); under setting [7], 0 of 6 (2×).

In the case of `O=CC(NC(=O)N(CCCl)N=O)C(O)C(O)C(O)CO` (stereo not drawn), the T/C is, setting by setting: (dose: 0.9 mg/kg/injection, schedule: Q01DX009 (ip), vehicle: carboxymethylcellulose (CMC)) 131 % of control; (dose: 0.9 mg/kg/injection, schedule: Q01DX009 (ip), vehicle: other) 132 % of control; (dose: 0.9 mg/kg/injection, schedule: Q01DX009 (ip), vehicle: saline) 126 % of control; (dose: 1.3 mg/kg/injection, schedule: Q01DX009 (ip), vehicle: carboxymethylcellulose (CMC)) 137 % of control; (dose: 1.3 mg/kg/injection, schedule: Q01DX009 (ip), vehicle: other) 139 % of control; (dose: 1.3 mg/kg/injection, schedule: Q01DX009 (ip), vehicle: saline) 137 % of control. Further, the T/C was 135 % of control (dose: 2.0 mg/kg/injection, schedule: Q01DX009 (ip), vehicle: saline); 131 % of control (dose: 3.0 mg/kg/injection, schedule: Q01DX009 (ip), vehicle: saline); 142 % of control (dose: 4.0 mg/kg/injection, schedule: Q01DX001 (ip), vehicle: carboxymethylcellulose (CMC)); 138 % of control (dose: 4.0 mg/kg/injection, schedule: Q01DX001 (ip), vehicle: other); 144 % of control (dose: 4.0 mg/kg/injection, schedule: Q01DX001 (ip), vehicle: saline); 146 % of control (dose: 6.0 mg/kg/injection, schedule: Q01DX001 (ip), vehicle: carboxymethylcellulose (CMC)). Moreover, the T/C (dose: 6.0 mg/kg/injection, schedule: Q01DX001 (ip), vehicle: saline) was 148 % of control. Further, the survivor count is 10 of 10 under setting [4]; 5 of 10 (dose: 67.0 mg/kg/injection, schedule: Q01DX001 (ip), vehicle: carboxymethylcellulose (CMC)); 9 of 10 (dose: 67.0 mg/kg/injection, schedule: Q01DX001 (ip), vehicle: saline); 3 of 10 (dose: 100.0 mg/kg/injection, schedule: Q01DX001 (ip), vehicle: carboxymethylcellulose (CMC)); 1 of 10 (dose: 150.0 mg/kg/injection, schedule: Q01DX001 (ip), vehicle: carboxymethylcellulose (CMC)); 0 of 10 (dose: 225.0 mg/kg/injection, schedule: Q01DX001 (ip), vehicle: carboxymethylcellulose (CMC)).

With `C=C(C)[C@@H](/C=C/[C@@H](C)[C@H]1CC[C@H]2C3=CC[C@H]4C[C@@H](O)CC[C@]4(C)[C@H]3CC[C@]12C)CC`, the survivor count under setting [3] is on record as 2 of 4.

On to `O=[N+]([O-])C(Br)(c1ccccc1)S(=O)(=O)Cc1ccccc1` (stereo not drawn), for which the survivor count (dose: 400.0 mg/kg/injection, schedule: Q01DX009 (ip), vehicle: Klucel (hydroxypropylcellulose) (HPC)) is listed as 2 of 6.

For `COc1ccc2c(c1)c1c(C)c3cnccc3c(C)c1n2C`, the T/C reads like this: (dose: 100.0 mg/kg/injection, schedule: Q01DX001 (ip), vehicle: saline) 127 % of control; (dose: 175.0 mg/kg/injection, schedule: Q01DX001 (ip), vehicle: saline) 138 % of control; (dose: 200.0 mg/kg/injection, schedule: Q01DX001 (ip), vehicle: saline) 144 % of control; (dose: 400.0 mg/kg/injection, schedule: Q01DX001 (ip), vehicle: saline) 147 % of control [3 of 4 alive]; (dose: 600.0 mg/kg/injection, schedule: Q01DX001 (ip), vehicle: saline) 125 % of control [4 of 6 alive].

In the case of `NNC(=O)c1nc2ccccc2s1`, the survivor count (dose: 300.0 mg/kg/injection, schedule: Q01DX001 (ip), vehicle: other) was 0 of 6.

Consider `COc1ccc(COC(=O)Nc2cccc(Cl)c2)cc1`, for which, under setting [1], the survivor count is 5 of 6.
